Test results taken from PubChem BioAssay AID540256 (National Center for Advancing Translational Sciences (NCATS), 2011).
Out of some 300,000 compounds screened, about 3,700 (1.2%) were called active. The shares of active, inactive and inconclusive entries below differ from those in the screen. The call rests on the fitted dose curve; tested in HEK293 cells. Where the call is inconclusive, the potency comes from a doubtful curve fit.

Assay: qHTS for Inhibitors of binding or entry into cells for Lassa Virus; further: nearly all actives have a fitted effect of over 50% in size
Settings: Lassa virus pseudotype entry inhibition, cell reporter; series mostly up to 37.9 µM
Potency means the concentration at half of the fitted maximal effect.

| SMILES | Potency |
| --- | --- |
| Cc1cc(=O)[nH]c2c1c(C)nn2-c1ccccc1 | inconclusive: 2.91 µM [activator, single point] |
| O=C(OCC(=O)N1CCOCC1)c1ccc(O)cc1 | inactive |
| CCC(C)NC(=O)CCn1c(=O)c2cccn2c2ccc(F)cc21 (configuration not stated) | inconclusive: 35.5 µM [activator, single point] |
| CCCCN1CCc2c([nH]c3ccc(C)cc23)C1=O | inconclusive: 18.3 µM [inhibitor, single point] |
| Cc1nn(C)c(C)c1S(=O)(=O)N1CCCC(C(=O)N2CCN(c3ccc(Cl)cc3)CC2)C1 (configuration not stated) | inactive |
| O=C1/C(=C\c2ccco2)CCC/C1=C\c1ccco1 | inconclusive: 1.12 µM [inhibitor, partial curve, poor fit] |
| COc1ccc(OC)c(CN2CCCC(C(=O)c3ccccc3SC)C2)c1 (configuration not stated) | inconclusive: 6.31 µM [inhibitor, full curve, poor fit] |
| O=C(Nc1cc([N+](=O)[O-])ccc1Cl)C(Sc1ccccc1)c1ccccc1 (configuration not stated) | inactive |
| C/C(=N\OC(=O)NC(C)C)c1sc(-c2ccc(Cl)cc2)nc1C | inconclusive: 17.8 µM [inhibitor, single point] |
| COc1ccc(NC(=O)/C(C#N)=C/C=C/c2ccco2)cc1 | inconclusive: 6.51 µM [inhibitor, partial curve] |
| CC(C)(C)NC(=S)N/N=C/c1cccnc1 | inconclusive: 1.78 µM [inhibitor, partial curve, poor fit] |
| COc1ccccc1/C=C/C=N/n1c(-c2cc(-c3ccccc3)n[nH]2)n[nH]c1=S | inconclusive: 14.1 µM [inhibitor, partial curve, poor fit] |
| COc1ccc(NC(=O)c2cc(-c3ccc(C)cc3O)n[nH]2)c(OC)c1 | inconclusive: 2.51 µM [activator, single point] |
| Cc1cc(C)cc(NC(=S)NC2CC3CCC(C2)N3Cc2ccco2)c1 (configuration not stated) | inconclusive: 35.5 µM [inhibitor, partial curve, poor fit] |
| O=C(CN1CCCCC1)Nc1nc(-c2ccc(Cl)cc2)cs1 | inactive |
| O=S(=O)(Cc1ccccc1)C(CCCc1ccccc1)S(=O)(=O)Cc1ccccc1 | inconclusive: 10 µM [inhibitor, partial curve] |
| Cc1ccc(C(=O)N(Cc2ccc(N(C)C)cc2)Cc2ccco2)cc1 | inconclusive: 7.94 µM [inhibitor, partial curve, poor fit] |
| Cc1ccc(OCCSc2ncccn2)c(C)c1 | active: 10 µM |
| Cc1c(Cl)cccc1NC(=O)CSc1nncn1-c1ccccn1 | inactive |
| COc1cc(C(=O)NN=Cc2ccc(N(CCCl)CCCl)cc2)cc(OC)c1OC | inconclusive: 4.47 µM [inhibitor, full curve, poor fit] |
| CCCCNC(=S)N/N=C/C1=CCC2CC1C2(C)C (configuration not stated) | inconclusive: 14.6 µM [inhibitor, partial curve] |
| CCCCCC(=O)N(O)C1CC(=O)N(c2ccccc2)C1=O (configuration not stated) | inactive |
| Cc1cccc(OCc2nc3ccccc3c(=O)n2N)c1 | inconclusive: 0.794 µM [activator, partial curve, poor fit] |
| Nc1ncnc(Nc2c(F)cccc2F)n1 | inactive |

Reformatted with bars between the fields: part of the list above
SMILES | Potency
COc1ccc(OC)c(CN2CCCC(C(=O)c3ccccc3SC)C2)c1 (configuration not stated) | inconclusive: 6.31 µM [inhibitor, full curve, poor fit]
O=C(Nc1cc([N+](=O)[O-])ccc1Cl)C(Sc1ccccc1)c1ccccc1 (configuration not stated) | inactive

Carrying on:

| SMILES | Potency |
| --- | --- |
| COc1ccc(OCCCSc2ncccn2)cc1 | inconclusive: 2.82 µM [activator, single point] |
| CC1CCN(Cc2c(O)ccc3c2O/C(=C\c2ccco2)C3=O)CC1 | inactive |
| Cc1nc(NC(=O)CN(C)S(=O)(=O)c2ccc(Br)cc2)sc1C | inconclusive: 6.51 µM [inhibitor, partial curve, poor fit] |
| COc1ccc(OC)c(S(=O)(=O)NCc2ccccc2)c1 | inconclusive: 0.0461 µM [activator, partial curve, poor fit] |
| Cc1ccn2c(Nc3ccc4c(c3)OCCO4)c(-c3ccc(Cl)s3)nc2c1 | inconclusive: 0.562 µM [activator, full curve, poor fit] |
| O=C(N/N=C/c1cccnc1)c1sc2ccccc2c1Cl | inactive |
| CN(C1CCCCC1)S(=O)(=O)c1ccc2c(c1)c(=O)c(C(=O)NCCc1ccccc1)cn2C | inactive |
| Cc1cccc(NC(=O)C2CCCN(S(=O)(=O)c3cnc[nH]3)C2)c1C (configuration not stated) | inactive |
| CC(=O)Nc1ccc(S(=O)(=O)NCCC(=O)OCc2nc(N)nc(Nc3ccccc3C)n2)cc1 | inactive |
| COc1ccc(-c2csc(NC(=S)NC(=O)c3ccccc3)n2)cc1Br | inactive |
| NNC(=O)c1ccc2nc(-c3ccc(Br)cc3)cn2c1 | inconclusive: 35.5 µM [inhibitor, single point] |
| C=CCCN1C=C(C(=O)OCC)C(c2ccccc2)NC1=O (configuration not stated) | inconclusive: 0.376 µM [activator, single point] |
| CN(c1ccc(F)cc1)S(=O)(=O)c1ccc(Cl)c(C(=O)NCC2(N3CCOCC3)CCCCC2)c1 | inconclusive: 17.8 µM [inhibitor, partial curve] |
| Cc1c(C#N)c(N=CN(C)C)c(C(=O)c2ccc(Br)cc2)n1-c1ccc(Cl)cc1 | inconclusive: 29.1 µM [inhibitor, single point] |
| CCC(=O)Nc1cc(-c2nn(C)c(=O)c3ccccc23)ccc1N1CCOCC1 | inactive |
| CCCCn1c(N)c(N(CC(C)C)C(=O)C2CC(=O)N(Cc3ccccc3)C2)c(=O)[nH]c1=O (configuration not stated) | inconclusive: 3.16 µM [inhibitor, single point] |
| CC(=O)Nc1ccccc1NC(=O)C/C(C)=N/NC(=O)c1ccccn1 | inactive |
| COc1ccc(Cn2c(C(=O)O)c(CNCCc3cc(OC)ccc3OC)c3ccc(C)cc32)cc1 | inconclusive: 35.5 µM [inhibitor, single point] |
| Cc1cc(Cl)ccc1OCCCC(=O)NCCN1C(=O)S/C(=C\c2cccnc2)C1=O | inactive |
| CC(=O)Nc1ccc(S(=O)(=O)NCC2CCC(C(=O)NCCN(CC(C)C)CC(C)C)CC2)cc1 (configuration not stated) | inactive |
| Cc1ccc(NC(=O)c2sccc2C)cc1S(=O)(=O)N(C)C | inactive |
| Cc1cc(C(=O)N[C@@H](c2ccccc2)[C@]2(C)C[C@H]2[C@@H](C)C(=O)Nc2ccc3ccccc3c2)no1 | inactive |
| O=c1oc2ccccc2cc1-c1csc(NN=C2CCCC2)n1 | inconclusive: 2 µM [activator, partial curve, poor fit] |
| CC1Oc2ccccc2C=C1/C=N/NC(=O)c1ccccc1 (configuration not stated) | inconclusive: 12.6 µM [inhibitor, single point] |

| SMILES | Potency |
| --- | --- |
| Cc1c(Cl)cccc1NS(=O)(=O)c1ccc2c(c1)C1C=CCC1C(c1ccc(C(=O)O)cc1)N2 (configuration not stated) | inconclusive: 5.01 µM [inhibitor, full curve] |
| COc1ccc([C@H]2[C@H](C(=O)OC(C)(C)C)N3N=Cc4ccccc4C3C23C(=O)c2ccccc2C3=O)cc1OC (some centres not stated) | inconclusive: 35.5 µM [inhibitor, single point] |
| Cn1ccnc1SCC(=O)Nc1cccc([N+](=O)[O-])c1 | inactive |
| O=C(Nc1ccc(C#Cc2ccccc2)cc1)C1CC1 | active: 4.61 µM |
| CCOC(=O)c1cc(C)n(-c2ccc(OC)c(OC)c2)c1C | inconclusive: 14.1 µM [inhibitor, single point] |
| O=C(COc1ccc(Br)cc1)NCCO | inactive |
| CCOC(=O)c1sc(NC(=O)Cc2c(F)cccc2Cl)nc1C | inconclusive: 3.16 µM [inhibitor, full curve] |
| Cc1ccc2c(c1)C(c1ccccc1)N(C(=O)Cc1ccc(F)cc1)CC(=O)N2 (configuration not stated) | inconclusive: 11.2 µM [inhibitor, single point] |
| COc1cc(CNC(C)(C)CO)cc(Br)c1OCc1ccc(Cl)cc1 | inconclusive: 17.8 µM [inhibitor, single point] |
| c1ccc2c(c1)nc(N1CCCCCC1)c1ccccc12 | inconclusive: 11.2 µM [activator, single point] |
| CCOc1ccc(S(=O)(=O)N2CCCC2)cc1 | inconclusive: 0.146 µM [activator, full curve, poor fit] |
| CCOC(=O)Nc1ccc(NS(=O)(=O)c2ccc(C)cc2)cc1 | active: 11.6 µM |
| CCc1ccc(OCC(=O)N/N=C(\C)c2ccc(OC(F)F)cc2)cc1 | inconclusive: 1.64 µM [inhibitor, full curve] |
| CCN1C(=NCCc2c[nH]c3ccccc23)NC(c2cccc(F)c2)C(C(=O)OC)=C1C (configuration not stated) | inconclusive: 0.0053 µM [inhibitor, full curve, poor fit] |
| O=C(c1cccn1-c1nnc(N2CCCC2)s1)N1CCN(c2ccc(Cl)cc2)CC1 | inactive |
| COc1cc(C2Nc3c(C)cc(C)cc3-c3cc(C)nn32)cc(OC)c1O (configuration not stated) | inconclusive: 7.94 µM [inhibitor, partial curve, poor fit] |
| CSc1nc(C)cc(Oc2ccccc2)n1 | inactive |
| CC(C)[C@@]1(NC(=O)[C@@H]2C=C3c4cccc5[nH]cc(c45)C[C@H]3N(C)C2)O[C@@]2(O)[C@@H]3CCCN3C(=O)[C@H](Cc3ccccc3)N2C1=O | inactive |
| CCCc1cc(=O)[nH]c2nnc(SCC)n12 | inactive |
| COc1cc(CNC(=O)c2cccc(COc3ccc(Cl)cc3)c2)cc(OC)c1 | inconclusive: 35.5 µM [inhibitor, single point] |
| CC(=O)Nc1c([N+](=O)[O-])cc2[nH]c(=O)[nH]c2c1[N+](=O)[O-] | inactive |
| CN(CCOc1ccc(Cl)cc1)CC(O)c1ccccc1 (configuration not stated) | inactive |
| O=C1S/C(=C/c2ccc(N3CCOCC3)o2)C(=O)N1Cc1ccc(F)cc1 | inactive |
| Cc1ccccc1OCCC(=O)OCC(=O)Nc1c(F)cccc1F | inconclusive: 12.6 µM [activator, partial curve, poor fit] |

Single values from the results shown:
Under Potency, CN(CCOc1ccc(Cl)cc1)CC(O)c1ccccc1 (configuration not stated) has the entry inactive
Under Potency, CC(C)[C@@]1(NC(=O)[C@@H]2C=C3c4cccc5[nH]cc(c45)C[C@H]3N(C)C2)O[C@@]2(O)[C@@H]3CCCN3C(=O)[C@H](Cc3ccccc3)N2C1=O has the entry inactive
